# The list shows a part of the results.
# Legend:
# Assay in all cases: glycan array binding signal (z-score within array); higher = stronger binding
# Details in all cases: glycan notation: IUPAC condensed, linker removed
# Fuc(a1-2)Gal = target: Fuc(a1-2)Gal
# How it was run: (§1)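 Arrays were curated from the Consortium for Functional Glycomics database, 3228 in total, and kept only where the protein sequence was available. Binding is expressed as a within-array Z-score. This score was averaged across arrays of the same protein sequence at different concentrations or buffers and across linkers, and negative values can be read as non-binding.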
# Fuc(a1-2)Gal(b1-3)GalNAc = target: Fuc(a1-2)Gal(b1-3)GalNAc
# How it was run: as §1
# [1] = target: Fuc(a1-2)Gal(b1-3)GalNAc(a1-3)[Fuc(a1-2)]Gal(b1-4)Glc
# How it was run: as §1
# [2] = target: Fuc(a1-2)Gal(b1-3)GalNAc(a1-3)[Fuc(a1-2)]Gal(b1-4)GlcNAc
# How it was run: as §1
# [3] = target: Fuc(a1-2)Gal(b1-3)GalNAc(b1-3)Gal
# How it was run: as §1
# [4] = target: Fuc(a1-2)Gal(b1-3)GalNAc(b1-3)Gal(a1-4)Gal(b1-4)Glc
# How it was run: as §1
# [5] = target: Fuc(a1-2)Gal(b1-3)GalNAc(b1-4)[Neu5Ac(a2-3)]Gal(b1-4)Glc
# How it was run: as §1
# Fuc(a1-2)Gal(b1-3)GlcNAc = target: Fuc(a1-2)Gal(b1-3)GlcNAc
# How it was run: as §1
# [6] = target: Fuc(a1-2)Gal(b1-3)GlcNAc(b1-2)Man(a1-3)[Fuc(a1-2)Gal(b1-3)GlcNAc(b1-2)Man(a1-6)]Man(b1-4)GlcNAc(b1-4)GlcNAc
# How it was run: as §1
# [7] = target: Fuc(a1-2)Gal(b1-3)GlcNAc(b1-2)Man(a1-3)[Fuc(a1-2)Gal(b1-3)GlcNAc(b1-2)Man(a1-6)]Man(b1-4)GlcNAc(b1-4)[Fuc(a1-6)]GlcNAc
# How it was run: as §1
# [8] = target: Fuc(a1-2)Gal(b1-3)GlcNAc(b1-3)Gal(b1-4)Glc
# How it was run: as §1
# [9] = target: Fuc(a1-2)Gal(b1-3)GlcNAc(b1-3)GalNAc
# How it was run: as §1
# [10] = target: Fuc(a1-2)Gal(b1-3)GlcNAc(b1-3)[Fuc(a1-2)Gal(b1-3)GlcNAc(b1-6)]GalNAc
# How it was run: as §1
# [11] = target: Fuc(a1-2)Gal(b1-3)GlcNAc(b1-3)[Gal(b1-4)GlcNAc(b1-6)]Gal(b1-4)Glc
# How it was run: as §1
# [12] = target: Fuc(a1-2)Gal(b1-3)GlcNAc(b1-3)[Neu5Ac(a2-6)Gal(b1-4)GlcNAc(b1-6)]Gal(b1-4)Glc
# How it was run: as §1
# [13] = target: Fuc(a1-2)Gal(b1-3)GlcNAc6S
# How it was run: as §1
# [14] = target: Fuc(a1-2)Gal(b1-3)[Fuc(a1-4)]GlcNAc
# How it was run: as §1
# [15] = target: Fuc(a1-2)Gal(b1-3)[Fuc(a1-4)]GlcNAc(b1-2)Man(a1-3)[Fuc(a1-2)Gal(b1-3)[Fuc(a1-4)]GlcNAc(b1-2)Man(a1-3)]Man(b1-4)GlcNAc(b1-4)GlcNAc
# How it was run: as §1
# [16] = target: Fuc(a1-2)Gal(b1-3)[Fuc(a1-4)]GlcNAc(b1-2)Man(a1-3)[Fuc(a1-2)Gal(b1-3)[Fuc(a1-4)]GlcNAc(b1-2)Man(a1-6)]Man(b1-4)GlcNAc(b1-4)[Fuc(a1-6)]GlcNAc(b1-4)[Fuc(a1-6)]GlcNAc
# How it was run: as §1
# [17] = target: Fuc(a1-2)Gal(b1-3)[Fuc(a1-4)]GlcNAc(b1-3)[Fuc(a1-3)[Gal(b1-4)]GlcNAc(b1-6)]Gal(b1-4)Glc
# How it was run: as §1
# [18] = target: Fuc(a1-2)Gal(b1-3)[Fuc(a1-4)]GlcNAc(b1-3)[Gal(b1-4)GlcNAc(b1-6)]Gal(b1-4)Glc
# How it was run: as §1
# Fuc(a1-2)Gal(b1-4)Glc = target: Fuc(a1-2)Gal(b1-4)Glc
# How it was run: as §1
# Fuc(a1-2)Gal(b1-4)Glc6S = target: Fuc(a1-2)Gal(b1-4)Glc6S
# How it was run: as §1
# Fuc(a1-2)Gal(b1-4)GlcNAc = target: Fuc(a1-2)Gal(b1-4)GlcNAc
# How it was run: as §1
# [19] = target: Fuc(a1-2)Gal(b1-4)GlcNAc(b1-2)Man
# How it was run: as §1
# [20] = target: Fuc(a1-2)Gal(b1-4)GlcNAc(b1-2)Man(a1-3)[Fuc(a1-2)Gal(b1-4)GlcNAc(b1-2)Man(a1-6)]Man(b1-4)GlcNAc(b1-4)GlcNAc
# How it was run: as §1
# [21] = target: Fuc(a1-2)Gal(b1-4)GlcNAc(b1-2)Man(a1-3)[Fuc(a1-2)Gal(b1-4)GlcNAc(b1-2)Man(a1-6)]Man(b1-4)GlcNAc(b1-4)[Fuc(a1-6)]GlcNAc
# How it was run: as §1
# [22] = target: Fuc(a1-2)Gal(b1-4)GlcNAc(b1-2)[Fuc(a1-2)Gal(b1-4)GlcNAc(b1-4)]Man(a1-3)[Fuc(a1-2)Gal(b1-4)GlcNAc(b1-2)Man(a1-6)]Man(b1-4)GlcNAc(b1-4)GlcNAc
# How it was run: as §1
# [23] = target: Fuc(a1-2)Gal(b1-4)GlcNAc(b1-3)Gal(b1-4)GlcNAc
# How it was run: as §1
# [24] = target: Fuc(a1-2)Gal(b1-4)GlcNAc(b1-3)Gal(b1-4)GlcNAc(b1-2)Man(a1-3)[Fuc(a1-2)Gal(b1-4)GlcNAc(b1-3)Gal(b1-4)GlcNAc(b1-2)Man(a1-6)]Man(b1-4)GlcNAc(b1-4)GlcNAc
# How it was run: as §1
# [25] = target: Fuc(a1-2)Gal(b1-4)GlcNAc(b1-3)Gal(b1-4)GlcNAc(b1-3)Gal(b1-4)GlcNAc
# How it was run: as §1
# [26] = target: Fuc(a1-2)Gal(b1-4)GlcNAc(b1-3)GalNAc
# How it was run: as §1
# [27] = target: Fuc(a1-2)Gal(b1-4)GlcNAc(b1-3)[Fuc(a1-2)Gal(b1-4)GlcNAc(b1-6)]GalNAc
# How it was run: as §1
# [28] = target: Fuc(a1-2)Gal(b1-4)GlcNAc(b1-3)[Fuc(a1-3)[Gal(b1-4)]GlcNAc(b1-6)]Gal(b1-4)Glc
# How it was run: as §1
# [29] = target: Fuc(a1-2)Gal(b1-4)GlcNAc(b1-6)GalNAc
# How it was run: as §1
# [30] = target: Fuc(a1-2)Gal(b1-4)GlcNAc6S
# How it was run: as §1
# [31] = target: Fuc(a1-2)Gal(b1-4)[Fuc(a1-3)]GlcNAc
# How it was run: as §1
binder,measurement,setting,value
Wzz (Escherichia coli) (protein) MRTWKFPSVRVMMRVENNNVSGQNHDPEQIDLIDLLVQLWRGKMTIIISVIVAIVLAIGYLAVAKEKWTSTAIITQPDVGQIAGYNNAMNVIYGQAAPKVSDLQETLIGRFSSAFSALAETLDNQEEPEKLTIEPSVKNQQLPLTVSYVGQTAEGAQMKLAQYIQQVDDKVNQELEKDLKDNIALGRKNLQDSLRTQEVVAQEQKDLRIRQIQEALQYANQAQVTKPQIQQTGEDITQDTLFLLGSEALESMIKHEATRPLVFSSNYYQTRQNLLDIDNLDVDKLDIHAYLYVMKPTLPIRRDSPKKAITLILAVLLGGMVGAGIVLGRNALRNYNAK,glycan array binding signal (z-score),Fuc(a1-2)Gal,-0.122
same,glycan array binding signal (z-score),Fuc(a1-2)Gal(b1-3)GalNAc,-0.619
same,glycan array binding signal (z-score),[1],0.119
same,glycan array binding signal (z-score),[2],0.216
same,glycan array binding signal (z-score),[3],-0.012
same,glycan array binding signal (z-score),[4],-0.013
same,glycan array binding signal (z-score),[5],-0.278
same,glycan array binding signal (z-score),Fuc(a1-2)Gal(b1-3)GlcNAc,-0.154
same,glycan array binding signal (z-score),[6],0.134
same,glycan array binding signal (z-score),[7],-0.072
same,glycan array binding signal (z-score),[8],0.077
same,glycan array binding signal (z-score),[9],-0.55
same,glycan array binding signal (z-score),[10],-0.621
same,glycan array binding signal (z-score),[11],-0.335
same,glycan array binding signal (z-score),[12],-1.06
same,glycan array binding signal (z-score),[13],-0.211
same,glycan array binding signal (z-score),[14],-0.692
same,glycan array binding signal (z-score),[15],0.002
same,glycan array binding signal (z-score),[16],-0.552
same,glycan array binding signal (z-score),[17],-0.369
same,glycan array binding signal (z-score),[18],-0.77
same,glycan array binding signal (z-score),Fuc(a1-2)Gal(b1-4)Glc,-0.027
same,glycan array binding signal (z-score),Fuc(a1-2)Gal(b1-4)Glc6S,-0.088
same,glycan array binding signal (z-score),Fuc(a1-2)Gal(b1-4)GlcNAc,-0.345
same,glycan array binding signal (z-score),[19],0.3
same,glycan array binding signal (z-score),[20],0.027
same,glycan array binding signal (z-score),[21],-0.64
same,glycan array binding signal (z-score),[22],-0.244
same,glycan array binding signal (z-score),[23],-0.868
same,glycan array binding signal (z-score),[24],-0.586
same,glycan array binding signal (z-score),[25],-0.292
same,glycan array binding signal (z-score),[26],0.153
same,glycan array binding signal (z-score),[27],0.1
same,glycan array binding signal (z-score),[28],0.371
same,glycan array binding signal (z-score),[29],0.365
same,glycan array binding signal (z-score),[30],-0.388
same,glycan array binding signal (z-score),[31],0.133

# An excerpt of these results, as tab-separated lines.
binder	measurement	setting	value
Wzz (Escherichia coli) (protein) MRTWKFPSVRVMMRVENNNVSGQNHDPEQIDLIDLLVQLWRGKMTIIISVIVAIVLAIGYLAVAKEKWTSTAIITQPDVGQIAGYNNAMNVIYGQAAPKVSDLQETLIGRFSSAFSALAETLDNQEEPEKLTIEPSVKNQQLPLTVSYVGQTAEGAQMKLAQYIQQVDDKVNQELEKDLKDNIALGRKNLQDSLRTQEVVAQEQKDLRIRQIQEALQYANQAQVTKPQIQQTGEDITQDTLFLLGSEALESMIKHEATRPLVFSSNYYQTRQNLLDIDNLDVDKLDIHAYLYVMKPTLPIRRDSPKKAITLILAVLLGGMVGAGIVLGRNALRNYNAK	glycan array binding signal (z-score)	[17]	-0.369
same	glycan array binding signal (z-score)	[18]	-0.77
same	glycan array binding signal (z-score)	Fuc(a1-2)Gal(b1-4)Glc	-0.027
same	glycan array binding signal (z-score)	Fuc(a1-2)Gal(b1-4)Glc6S	-0.088
same	glycan array binding signal (z-score)	Fuc(a1-2)Gal(b1-4)GlcNAc	-0.345
same	glycan array binding signal (z-score)	[19]	0.3
same	glycan array binding signal (z-score)	[20]	0.027
